Data as given in PubChem BioAssay AID504764 (Drosophila RNAi Screening Center, 2011)

- Aim: 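Genes whose knock-down alters Notch-dependent transcription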 (primary screen)
- System: Drosophila Kc167 cells
- Reagents: long dsRNA against Drosophila genes
- Timing: about 5 days (4 days dsRNA, then 24 h after transfection)
- Conditions: transfection of constitutively active membrane-tethered Notch lacking the extracellular domain, read 24 h later
- Read-out: 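Light from a Notch-responsive E(spl)m3 luciferase reporter under active Notch, with control-promoter and no-Notch reporter wells to normalise; raw counts from paired wells a and b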
- Reading the numbers: induced reporter light, run 1, well a and induced reporter light, run 1, well b: higher = more light from the Notch target reporter with active Notch; control promoter light, run 1, well a and control promoter light, run 1, well b: higher = more light from the viral control promoter (cell number, transfection, viability); uninduced reporter light, run 1, well a: higher = more light from the Notch target reporter without active Notch
- Active means: 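Hit if the duplicate-averaged log2 ratio of induced to control-promoter light gives a plate-wise z beyond ±2, or induced to uninduced beyond ±1.8; weak-control or discordant-duplicate wells dropped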
- Calls: active = modifier hit (raised or lowered Notch signal); inactive = not a hit
The screen tested about 22,000 reagents; this is an unselected part of those that have a named target and a result. In the full data, 403 (1.9%) were called active. 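Unnormalised raw counts per well; ratio z-scores behind the hit calls and whether each hit raises or lowers signal are not deposited.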 Names joined by + are all predicted targets of the reagent. Not stated in the record: the amount of reagent.

no.	Target gene	PubChem SID	induced reporter light, run 1, well a	induced reporter light, run 1, well b	control promoter light, run 1, well a	control promoter light, run 1, well b	uninduced reporter light, run 1, well a	activity call
1	Dscam2	SID104188661	1.83e5	1.70e5	1.84e5	1.59e5	12650	inactive
2	Dscam2	SID104189990	1.99e5	2.20e5	2.08e5	1.83e5	7070	inactive
3	Dscam2	SID104190810	1.78e5	1.35e5	1.75e5	1.53e5	6892	inactive
4	Dscam2	SID104190811	1.22e5	1.72e5	1.59e5	1.30e5	3010	inactive
5	Or43a	SID104187277	1.46e5	1.41e5	1.84e5	1.86e5	12225	inactive
6	ORMDL	SID104191529	1.57e5	98785	1.08e5	87395	7950	inactive
7	brv2	SID104190018	1.72e5	2.04e5	2.63e5	1.85e5	7565	inactive
8	Cpr5C	SID104198132	1.35e5	1.44e5	2.81e5	2.49e5	9582	inactive
9	CG3919	SID104190181	1.43e5	1.80e5	1.18e5	1.47e5	11800	inactive
10	fray	SID104196742	1.60e5	1.59e5	1.89e5	1.76e5	13555	inactive
11	CG5188	SID104182618	1.17e5	1.28e5	68195	1.04e5	18995	inactive
12	CG7368	SID104190618	2.24e5	2.12e5	2.96e5	2.29e5	11320	inactive
13	CG13609	SID104194404	1.54e5	1.58e5	2.05e5	2.07e5	14630	inactive
14	Dpp10	SID104180734	1.55e5	1.19e5	1.90e5	1.74e5	11660	inactive
15	Dpp10	SID104181931	2.04e5	1.38e5	2.07e5	2.10e5	8795	inactive
16	CG34398	SID104180844	1.28e5	1.43e5	1.98e5	2.20e5	10850	inactive
17	CG34398	SID104182302	1.42e5	1.66e5	89570	1.34e5	22505	inactive
18	CG34398	SID104182303	2.11e5	2.05e5	1.50e5	1.59e5	15730	inactive
19	CG34398	SID104183020	1.42e5	1.53e5	1.30e5	97180	21465	inactive
20	CG10332 (retired record) + IM18	SID104183856	1.61e5	1.60e5	1.80e5	1.74e5	12210	inactive
21	Trf2	SID104198519	1.53e5	2.12e5	5.02e5	5.23e5	14628	active
22	CG1090	SID104191942	1.34e5	1.24e5	83685	88965	9185	inactive
23	Ugt302E1	SID104195427	60520	52340	52850	38365	4425	inactive
24	Yp2	SID104198524	1.61e5	1.63e5	1.91e5	1.77e5	12445	inactive
25	gt	SID104198574	20880	26720	29975	33050	3745	inactive
26	CG10338	SID104181831	58685	48960	66400	84580	4075	inactive
27	Rad1 + Sws1	SID104180570	1.61e5	1.16e5	1.17e5	84875	9300	inactive
28	bnl	SID104193169	79315	63610	95730	67030	9515	inactive
29	bnl	SID104196705	10255	9895	11415	12335	5175	inactive
30	CG33229	SID104187655	2.11e5	2.17e5	2.36e5	2.20e5	13760	inactive
31	CG33966	SID104188048	91190	1.14e5	1.90e5	1.69e5	6250	inactive
32	Osi5	SID104192068	87445	92945	91660	67815	7895	inactive
33	DIP-iota	SID104181932	1.70e5	1.35e5	1.75e5	1.68e5	9570	inactive
34	bif	SID104198693	76340	64195	1.06e5	55670	4010	inactive
35	bif	SID104200105	2.00e5	1.57e5	1.49e5	1.18e5	13260	active
36	CG32432	SID104191495	8395	7685	8225	6900	1805	inactive
37	CG32432	SID104191496	15370	15655	15785	11940	2960	inactive
38	CG32432	SID104191536	1.84e5	1.18e5	1.23e5	89260	15955	inactive
39	CG33278	SID104190128	1.79e5	1.59e5	1.93e5	1.70e5	7565	inactive
40	CG13127	SID104182015	98410	1.06e5	71210	88175	16415	inactive
41	CG7275	SID104190588	1.11e5	1.19e5	49625	70895	9880	inactive
42	Cyp4aa1	SID104187160	87860	1.13e5	1.54e5	1.42e5	6265	inactive
43	CG14448	SID104191497	1.17e5	1.04e5	1.29e5	1.24e5	7582	inactive
44	Tsp66E	SID104189475	1.28e5	1.27e5	1.32e5	1.15e5	6485	inactive
45	pan	SID104196968	1.18e5	1.42e5	1.50e5	1.79e5	11515	inactive
46	Galk	SID104190292	1.03e5	92925	80635	31905	9790	inactive
47	ATPsynbetaL	SID104190295	1.37e5	1.79e5	1.83e5	1.40e5	9300	inactive
48	cora	SID104187389	84040	72310	99790	1.11e5	6970	inactive
49	ihog	SID104182949	1.83e5	1.83e5	1.90e5	1.89e5	19940	inactive
50	CG18641	SID104180319	1.34e5	1.43e5	1.28e5	95040	8828	inactive
51	CG5335	SID104186723	28950	33440	49385	55025	3120	inactive
52	dpr18	SID104199398	79540	89905	77825	61015	12005	inactive
53	CG11474	SID104183904	2.37e5	2.07e5	1.73e5	1.89e5	15850	inactive
54	ssp5	SID104194747	1.50e5	1.39e5	97170	94370	10115	inactive
55	psh	SID104199782	95205	1.01e5	92580	86550	13665	inactive
56	kto	SID104190775	53170	53275	21810	31595	5025	inactive
57	Obp50c + Obp50b	SID104185274	1.85e5	2.99e5	3.08e5	3.90e5	16525	inactive
58	CG11382	SID104198416	1.17e5	1.15e5	2.02e5	2.42e5	9520	inactive
59	phtm	SID104200029	76625	98055	96070	1.12e5	10495	inactive
60	Gp93	SID104195619	1.65e5	2.26e5	2.08e5	2.19e5	13240	inactive
61	hydra	SID104200289	86735	1.18e5	1.28e5	1.71e5	11735	inactive
62	Eph	SID104196956	1.71e5	2.08e5	3.30e5	2.75e5	13265	inactive
63	AANATL6	SID104186565	32145	41925	37750	35095	3205	inactive
64	Cbl	SID104190556	1.29e5	1.54e5	1.48e5	1.03e5	8105	inactive
65	Cbl	SID104190903	1.87e5	1.76e5	1.56e5	1.79e5	8010	inactive

Sorted by “uninduced reporter light, run 1, well a” (high to low): some entries from above.
Target gene	PubChem SID	induced reporter light, run 1, well a	induced reporter light, run 1, well b	control promoter light, run 1, well a	control promoter light, run 1, well b	uninduced reporter light, run 1, well a	activity call
CG13127	SID104182015	98410	1.06e5	71210	88175	16415	inactive
CG32432	SID104191536	1.84e5	1.18e5	1.23e5	89260	15955	inactive
bif	SID104200105	2.00e5	1.57e5	1.49e5	1.18e5	13260	active
CG7275	SID104190588	1.11e5	1.19e5	49625	70895	9880	inactive
CG14448	SID104191497	1.17e5	1.04e5	1.29e5	1.24e5	7582	inactive
CG33278	SID104190128	1.79e5	1.59e5	1.93e5	1.70e5	7565	inactive
Cyp4aa1	SID104187160	87860	1.13e5	1.54e5	1.42e5	6265	inactive
CG32432	SID104191496	15370	15655	15785	11940	2960	inactive
CG32432	SID104191495	8395	7685	8225	6900	1805	inactive
